According to patent US7608626B2, “Substituted indolizines and derivatives as CNS agents” (Wyeth, priority 2004, dated 2009):

Biological target: T1, human 5-hydroxytryptamine-2C (h-5-HT2C) receptor (Homo sapiens, UniProt P28335)
T1 construct: expressed in transfected cells; host or cells: Chinese Hamster Ovary (CHO) cells; membrane preparation
T1 sequence (P28335 33-458): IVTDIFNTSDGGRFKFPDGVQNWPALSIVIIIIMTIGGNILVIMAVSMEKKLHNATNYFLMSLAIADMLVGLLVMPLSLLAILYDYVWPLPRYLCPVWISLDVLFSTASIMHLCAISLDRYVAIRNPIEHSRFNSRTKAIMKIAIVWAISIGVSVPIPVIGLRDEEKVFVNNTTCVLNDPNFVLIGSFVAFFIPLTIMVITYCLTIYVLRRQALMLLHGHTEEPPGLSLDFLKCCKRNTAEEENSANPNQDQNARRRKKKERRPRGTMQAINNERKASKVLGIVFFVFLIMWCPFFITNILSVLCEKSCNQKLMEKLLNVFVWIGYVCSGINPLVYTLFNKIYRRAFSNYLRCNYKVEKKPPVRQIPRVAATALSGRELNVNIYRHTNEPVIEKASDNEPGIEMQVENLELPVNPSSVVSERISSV
Assay: [125I]DOI binding to membranes of CHO cells expressing h-5-HT2C receptor
Conditions: saturation binding with increasing concentrations of [125I]DOI; read-out: dissociation constant, KD

**Q.** With `COc1cc(CC(C)N)c(OC)cc1I` (stereo not shown) [[^125I] DOI, reference compound] as the compound, how does the Kd read?
**A.** Its Kd is 0.4 nM.
